Data: patent publication US20200361987A1 (STEALTH BIOTHERAPEUTICS CORP., priority 2017, published 2020)
Where “and” joins values, the source holds several entries; their conditions need not be identical. Equal values may be shown once. Square brackets hold non-standard residues; d marks the D form. Peptide text beside a SMILES is read from it.

Legend:
[1] = general procedure: hybrid (solid and solution phase) peptide synthesis; Fmoc-Phe-OH Wang Resin (loading 0.5 mmol/g); Fmoc-DMT-OH Wang Resin (loading 0.5 mmol/g); EDC.HCl/HOBt
[2] = system: CL:DOPC 1:3 liposomes (cardiolipin); assay: Isothermal titration calorimetry (ITC) of test compound into CL:DOPC liposomes; assay type: binding; conditions: 20 mM HEPES pH 7.4
Description: Example 18: Isothermal Titration Calorimetry (ITC) Study
1. Preparation of CL:DOPC 1:3 Liposomes (CL Concentration 0.1 mM)
146 μl of cardiolipin solution (5.1 mg/mL in EtOH, Sigma-Aldrich, C1649-10MG) were mixed with 1.2 mg 0.05 mg (exact weight, see Table 1) of DOPC (Avanti Polar Lipids, 850375P) and 20 mM HEPES buffer pH=7.4. Resulting solution was diluted up to 5 mL with the same buffer, vortexed for 2 min and sonicated in bath sonicator for 30 min at room temperature. Liposomes were produced by manual extrusion (Avestin, The LiposoFast-Stabilizer with a LiposoFast-Basic) through a 100 nm filter (Avestin, PC membranes 0.1 m or Avanti Polar Lipids, PC membranes 0.1 μm, 610005). Extrusion was performed for 21 times. EtOH concentration in sample is 2.9%. Obtained CL:DOPC solutions were tested for homogeneity by DLS (Malvern Instruments Ltd, Zetasizer Nano ZSP, instrument with Malvern Instruments Ltd software 7.11) using the following parameters—medium: water; refractive index: 1.33; viscosity: 0.8872 cP; temperature: 25° C.; nanoparticles: liposomes; refractive index of materials: 1.60; detection angle of 173°, a wavelength of 633 nm. All measurements were performed in triplicate.
2. Preparation of Test Compound Solutions
2 mg or 14 mg (exact weight, see Table 1) of test compound were dissolved in 20 mM HEPES buffer (pH=7.4, contains 2,9% (V/V) of EtOH) to obtain 0.7 mM concentration (for exact volumes see Table 3). Obtained solution was vortexed for 2 min.
3. ITC Titration Experiments
Instrument cell was washed and purged with ≈100 μL of CL:DOPC liposomes solution. After washing cell was filled with CL:DOPC liposomes solution. Injection syringe was loaded with test compound solution. Injection volumes were set to values shown in Table 2 and DP values were set to 2.5 μcal/sec in all experiments. Time between injections—105 seconds. Titration of each compound is performed in triplicate, results are reported as mean value±standard deviation (see Table 4).

[3] = coupling step, HPLC, hydrochloride or trifluoroacetate
[4] = late stage modification step, HPLC, hydrochloride or trifluoroacetate
[5] = late stage modification step, 210 nm, hydrochloride or trifluoroacetate
[6] = late stage modification step, hydrochloride or trifluoroacetate
[7] = late stage modification step, 256 nm, hydrochloride or trifluoroacetate
[8] = coupling step, hydrochloride or trifluoroacetate

For “(Boc)-Phe-D-Arg-(α-d)-Phe-(N6-Cbz)-Lys-NH2”, the “final purity (method not given)” value [1, 3] was 90%.
In the case of “(Boc)-Phe-D-Arg-Phe-(N6-Boc-2,5,5-d3)-Lys-NH2”, the “final purity (method not given)” value [1, 3] is reported as 70%.
For “(α,β,β,2,3,4,5,6-d8)-Phe-D-Arg-Phe-(N6-Cbz)-Lys-NH2”, the “crude purity (method not given)” value [1, 4] was “purity—80%”.
In the case of D-Arg-DMT-(4,4,5,5-d4)-Lys-Phe-NH2, the “crude HPLC purity” value [1, 5] is reported as 96.1% and the step yield [1, 6] is reported as 99%.
For `[2H]C([2H])(N)C([2H])([2H])C([2H])([2H])C([2H])([2H])[C@H](NC(=O)[C@H](Cc1ccccc1)NC(=O)[C@@H](CCCNC(=N)N)NC(=O)[C@@H](N)Cc1ccccc1)C(N)=O` [Example 1, Phe-D-Arg-Phe-(3,3,4,4,5,5,6,6-octadeuterium)-Lys-NH2], the “-TΔS” value ([2]; Average of replicates) was 0.95 kcal/mol, the ΔG ([2]; Average of replicates) was -7.62 kcal/mol and the ΔH ([2]; Average of replicates) was -8573 cal/mol. The ΔS ([2]; Average of replicates) was -3.2 cal/mol, the “-TΔS” value ([2]; single replicate titration) was 1.08 kcal/mol and 0.69 kcal/mol and 0.99 kcal/mol and 1.04 kcal/mol and the ΔG ([2]; single replicate titration) was -7.74 kcal/mol and -7.63 kcal/mol and -7.59 kcal/mol and -7.54 kcal/mol. For the same compound, the ΔH ([2]; single replicate titration) was -8821 cal/mol and the ΔS ([2]; single replicate titration) was -3.63 cal/mol and -2.32 cal/mol and -3.31 cal/mol and -3.49 cal/mol.
With D-Arg-DMT-(2,6,6-d3)-Lys-Phe-NH2 the “crude HPLC purity” value [1, 5] was 96.07%, the “crude HPLC purity” value [1, 7] was 94.19% and the step yield [1, 6] was 99%.
For `N=C(N)NCCC[C@@H](NC(=O)[C@@H](N)Cc1ccccc1)C(=O)N[C@@H](Cc1ccccc1)C(=O)N[C@@H](CCCCN)C(N)=O` [Example 1 non-deuterated, Phe-D-Arg-Phe-Lys-NH2, reference compound] (H-F[dR]FK-NH2), the “-TΔS” value ([2]; Average of replicates) was -0.59 kcal/mol, the ΔG ([2]; Average of replicates) was -7.20 kcal/mol and the ΔH ([2]; Average of replicates) was -6611 cal/mol. The ΔS ([2]; Average of replicates) was 1.98 cal/mol, the “-TΔS” value ([2]; single replicate titration) was -0.65 kcal/mol and -0.36 kcal/mol and -0.76 kcal/mol and the ΔG ([2]; single replicate titration) was -7.31 kcal/mol and -7.02 kcal/mol and -7.27 kcal/mol. For the same compound, the ΔH ([2]; single replicate titration) was -6660 cal/mol and -6666 cal/mol and -6508 cal/mol and the ΔS ([2]; single replicate titration) was 2.19 cal/mol and 1.20 cal/mol and 2.54 cal/mol.
With “(Cbz)-D-Arg-DMT-(3,3,4,4,5,5,6,6-d8)-Lys-Phe-NH2” the “final HPLC purity” value [1, 5] was 97.34% and the step yield [1, 6] was 79%.
“(Boc)-Phe-D-Arg-(α,β,β,2,3,4,5,6-d8)-Phe-Lys-NH2” gave a step yield [1, 6] of 94%.
“Phe-D-Arg-(α,β,β,2,3,4,5,6-d8)-Phe-Lys-NH2” showed a step yield [1, 6] of 61%.
With “(Cbz)-D-Arg-DMT-(N6-Boc-4,4,5,5-d4)-Lys-Phe-NH2” the step yield [1, 8] was 76%.
For “D-Arg-DMT-Lys-(α,β,β,2,3,4,5,6-d8)-Phe-NH2”, the step yield [1, 6] was 34%.
In the case of “(Boc)-D-Arg-DMT-(N6-Cbz)-Lys-(α-d)-Phe-NH2”, the “final purity (method not given)” value [1, 3] is reported as “purity—70%”.
For “D-Arg-DMT-(3,3,4,4,5,5,6,6-d8)-Lys-Phe-NH2”, the “crude HPLC purity” value [1, 5] was 81.59%, the “final HPLC purity” value [1, 5] was 98.95% and the “crude HPLC purity” value [1, 7] was 92.01%. The “final HPLC purity” value [1, 7] was 99.70%.
“D-(Boc)-Arg-DMT-Lys-(α,β,β, 2,3,4,5,6-d8)-Phe-NH2” showed a step yield [1, 6] of 89%.
Compound “(Boc)-Phe-D-Arg-(2,3,4,5,6-d5)-Phe-Lys-NH2” has a step yield [1, 6] of 85%.
“D-(Boc)-Arg-DMT-(N6-Cbz)-Lys-(α,β,β,2,3,4,5,6-d8)-Phe-NH2” showed a step yield [1, 8] of 30%.
Phe-D-Arg-(2,3,4,5,6-d5)-Phe-Lys-NH2 gave a step yield [1, 6] of 61%.
For Phe-D-Arg-Phe-(2-d)-Lys-NH2, the “final HPLC purity” value ([1]; late stage modification step, HPLC, trifluoroacetate) was greater than 96%.
With “(Boc)-Phe-D-Arg-(2,3,4,5,6-d5)-Phe-(N6-Cbz)-Lys-NH2” the step yield [1, 8] was 30%.
Compound “(Cbz)-D-Arg-DMT-(N6-Boc-2,6,6-d3)-Lys-Phe-NH2” has a step yield [1, 8] of 69%.
For “(Boc)-Phe-D-Arg-(α,β,β,2,3,4,5,6-d8)-Phe-(N6-Cbz)-Lys-NH2”, the step yield [1, 8] was 23%.
In the case of “(N-Boc-α,β,β,2,3,4,5,6-d8)-Phe-D-Arg-Phe-(N6-Cbz)-Lys-NH2”, the “final purity (method not given)” value [1, 3] is reported as “purity—80%”.
For (Cbz)-D-Arg-DMT-(2,6,6-d3)-Lys-Phe-NH2, the “final HPLC purity” value [1, 5] was 97.1% and the step yield [1, 6] was 73%.
In the case of “(Cbz)-D-Arg-DMT-(N6-Boc-3,3,4,4,5,5,6,6-d8)-Lys-Phe-NH2”, the step yield [1, 8] is reported as 80%.
With (Boc)-D-Arg-DMT-Lys-(α-d)-Phe-NH2 the “crude purity (method not given)” value [1, 4] was “purity—70%”.
In the case of “(Cbz)-D-Arg-DMT-(4,4,5,5-d4)-Lys-Phe-NH2”, the “final HPLC purity” value [1, 5] is reported as 97.3% and the step yield [1, 6] is reported as 66%.
